Assay results: paper doi:10.1101/2023.09.04.556233

Target: T1, Spalt major (Salm) (UniProt P39770)
T1 sequence (looked up): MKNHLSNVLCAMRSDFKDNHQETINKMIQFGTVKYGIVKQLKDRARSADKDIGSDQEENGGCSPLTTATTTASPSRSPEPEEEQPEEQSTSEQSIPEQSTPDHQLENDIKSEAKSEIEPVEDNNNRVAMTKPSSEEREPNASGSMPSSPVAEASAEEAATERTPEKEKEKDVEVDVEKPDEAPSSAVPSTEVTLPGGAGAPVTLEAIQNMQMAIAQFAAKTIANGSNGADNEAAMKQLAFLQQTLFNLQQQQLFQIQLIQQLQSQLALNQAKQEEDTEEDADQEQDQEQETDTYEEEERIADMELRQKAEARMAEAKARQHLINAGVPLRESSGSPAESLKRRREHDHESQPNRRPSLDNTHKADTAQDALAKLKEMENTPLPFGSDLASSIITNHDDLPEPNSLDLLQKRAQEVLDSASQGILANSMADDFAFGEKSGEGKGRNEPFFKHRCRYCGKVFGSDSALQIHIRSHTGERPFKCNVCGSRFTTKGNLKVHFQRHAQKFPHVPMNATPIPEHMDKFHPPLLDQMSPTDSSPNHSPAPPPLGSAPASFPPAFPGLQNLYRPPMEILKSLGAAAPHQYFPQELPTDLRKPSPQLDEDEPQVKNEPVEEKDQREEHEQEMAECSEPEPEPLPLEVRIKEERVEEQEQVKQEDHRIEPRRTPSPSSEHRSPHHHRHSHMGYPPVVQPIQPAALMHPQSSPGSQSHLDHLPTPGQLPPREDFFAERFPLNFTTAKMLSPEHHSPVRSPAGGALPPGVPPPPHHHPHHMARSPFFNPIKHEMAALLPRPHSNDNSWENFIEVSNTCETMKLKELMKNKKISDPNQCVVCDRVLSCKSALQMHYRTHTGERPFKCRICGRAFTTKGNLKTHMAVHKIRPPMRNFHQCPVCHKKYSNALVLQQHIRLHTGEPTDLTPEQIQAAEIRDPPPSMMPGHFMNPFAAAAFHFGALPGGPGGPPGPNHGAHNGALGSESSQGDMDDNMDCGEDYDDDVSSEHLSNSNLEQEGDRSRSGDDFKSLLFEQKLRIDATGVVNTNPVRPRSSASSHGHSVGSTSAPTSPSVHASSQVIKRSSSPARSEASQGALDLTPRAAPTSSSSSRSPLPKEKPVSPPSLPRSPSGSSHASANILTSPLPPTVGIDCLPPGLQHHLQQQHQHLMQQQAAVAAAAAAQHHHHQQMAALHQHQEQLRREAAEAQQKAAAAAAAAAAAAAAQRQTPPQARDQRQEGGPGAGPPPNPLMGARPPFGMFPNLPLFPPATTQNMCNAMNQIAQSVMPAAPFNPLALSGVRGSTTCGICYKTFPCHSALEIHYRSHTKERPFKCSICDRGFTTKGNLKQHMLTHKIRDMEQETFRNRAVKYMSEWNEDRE
Experiment: EMSA
Conditions: added NaCl, KCl or MgCl2 (in general unfavorable); residues 1-1365

“GCAAAAAGATATCAAAAATGTCGCATATTAATAACGCTCTCCATTGGCGGACACAGGAC (double strand) [60sal]”: binds more weakly.

The exact form of at least one protein or probe is not confirmed. A weaker result is weaker than the reference pair of the same experiment. Protein sequences can lack the tags named with them.
